“Also recorded” adds a separate entry of the source. At least one structure is not confirmed: it was looked up by name or label, or the drawing left a doubt.
Test system: unfractionated BMMNCs
Experiment: qRT-PCR of Wnt11-induced cardiac gene expression with PKC and JNK inhibitors
Format: cell-based, mice
Conditions: 3 days in Wnt11-CM
Method: Assessment of mRNA expression by quantitative real-time RT-PCR (qRT-PCR). All qRT-PCR reagents and primers were purchased from Qiagen Inc. (Valencia, Calif., United States of America). Prior to mRNA extraction, cell number was determined and calculated by Trypan blue exclusion. cDNA was generated from freshly isolated (designated as baseline) and cultured unfractionated BMMNCs at days 0, 3, 7, and 21 (see FIG. 9A) using QUANTISCRIPT REVERSE TRANSCRIPTASE™ (Qiagen Inc., Valencia, Calif., United States of America) contained in RT master mix of Cell to cDNA kits according to manufacturer's protocol. Each experiment contained two negative controls: (1) H2O alone; and (2) a total RNA sample prepared in the absence of the reverse transcriptase enzyme (-RT). At 0, 3, 7, and 21 days, cell monolayers were collected for cDNA preparation. For qRT-PCR, validated forward and reverse primer sets for the following genes were obtained from cDNA sequences contained in the public GENBANK® sequence database of the United States National Center for Biotechnology Information: α-MyHC, β-MyHc, cTnT, Nk×2.5, GATA-4, ANP, β-catenin, Oct-4, Nanog and 18S rRNA.
To avoid amplification of contaminating DNA, all validated qRT-PCR primers were designed to cross […] sequences within the cDNA to be amplified. Quantitative qRT-PCR analysis was performed in an ABI Prism 7900H sequence detection system (Applied Biosystems, Foster City, Calif.) using QUANTITECT™ SYBR® Green Real Time PCR kits. Each 50 μl qRT-PCR reaction contained 2 μl (approximately 50 ng) of cDNA, 5 μl of 1× primer mix (containing approximately 500 nM sense and anti-sense primers) and 25 μl of 2× QUANTITECT™ SYBR® Green master mix. Triplicates of each sample were amplified for 40 cycles.
The PCR product level is calculated from the threshold cycle (Ct). That is, the amplification cycle number at which exponential PCR-generated gene-specific fluorescence is first detected (above a fixed threshold level). The ΔCt values for each gene were normalized to an internal control ΔCt value (obtained from 18s ribosomal mRNA expression) in each sample and expressed as a -fold difference, calculated according to relative quantification method in relation to appropriate calibrators (see Pfaffl, 2001); either baseline BMMNCs mRNA levels or mRNA levels of BMMNCs at day 3 of culture in Wnt11-CM.
Assessment of Wnt signaling. […] The expression of cardiac-specific gene expression in unfractionated BMMNCs was assessed by qRT-PCR following culture for 3 days in Wnt11-CM and empty vector (control) medium with and without PKC (BIM; 1 μM) and JNK (SP600125; 10 μM; Sigma) inhibitors (see FIG. 9B). Expression of Wnt3a and β-catenin were measured by qRT-PCR to investigate the effect of control, Wnt3a medium, and Wnt11-CM on canonical signaling.

Oc1c2ccccc2c2c3c(cccc13)N=N2 [SP600125]
Wnt11-induced expression of cardiac contractile proteins (10 μM): completely abolished; also recorded: undetectable
expression of ANP (10 μM): not significantly affected; also recorded: relatively unaffected
expression of cardiac transcription factors GATA-4 and Nkx2.5 (10 μM): significantly depressed; also recorded: significantly reduced
Wnt11-induced cardiac gene expression (BIM 1 μM, SP600125 10 μM): partially abolished
